Reference: publication PMC11649789

The chains behind the UniProt entries cited, without tags or fusion partners.
UniProt P05198: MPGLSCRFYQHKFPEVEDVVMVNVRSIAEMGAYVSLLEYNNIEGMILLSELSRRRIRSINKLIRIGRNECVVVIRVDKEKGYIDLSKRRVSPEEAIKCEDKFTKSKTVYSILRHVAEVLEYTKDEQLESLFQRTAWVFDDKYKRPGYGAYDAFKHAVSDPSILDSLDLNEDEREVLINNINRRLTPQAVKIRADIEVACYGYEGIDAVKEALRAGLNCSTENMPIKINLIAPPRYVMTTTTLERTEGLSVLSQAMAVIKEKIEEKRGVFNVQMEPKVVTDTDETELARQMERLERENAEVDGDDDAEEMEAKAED
UniProt O75340: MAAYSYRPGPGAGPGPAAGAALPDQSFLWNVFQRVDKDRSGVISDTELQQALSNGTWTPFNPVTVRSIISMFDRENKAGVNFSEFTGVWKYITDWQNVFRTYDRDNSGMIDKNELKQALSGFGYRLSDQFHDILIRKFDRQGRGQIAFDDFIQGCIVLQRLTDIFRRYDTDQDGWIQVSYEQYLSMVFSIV
UniProt Q8WUM4: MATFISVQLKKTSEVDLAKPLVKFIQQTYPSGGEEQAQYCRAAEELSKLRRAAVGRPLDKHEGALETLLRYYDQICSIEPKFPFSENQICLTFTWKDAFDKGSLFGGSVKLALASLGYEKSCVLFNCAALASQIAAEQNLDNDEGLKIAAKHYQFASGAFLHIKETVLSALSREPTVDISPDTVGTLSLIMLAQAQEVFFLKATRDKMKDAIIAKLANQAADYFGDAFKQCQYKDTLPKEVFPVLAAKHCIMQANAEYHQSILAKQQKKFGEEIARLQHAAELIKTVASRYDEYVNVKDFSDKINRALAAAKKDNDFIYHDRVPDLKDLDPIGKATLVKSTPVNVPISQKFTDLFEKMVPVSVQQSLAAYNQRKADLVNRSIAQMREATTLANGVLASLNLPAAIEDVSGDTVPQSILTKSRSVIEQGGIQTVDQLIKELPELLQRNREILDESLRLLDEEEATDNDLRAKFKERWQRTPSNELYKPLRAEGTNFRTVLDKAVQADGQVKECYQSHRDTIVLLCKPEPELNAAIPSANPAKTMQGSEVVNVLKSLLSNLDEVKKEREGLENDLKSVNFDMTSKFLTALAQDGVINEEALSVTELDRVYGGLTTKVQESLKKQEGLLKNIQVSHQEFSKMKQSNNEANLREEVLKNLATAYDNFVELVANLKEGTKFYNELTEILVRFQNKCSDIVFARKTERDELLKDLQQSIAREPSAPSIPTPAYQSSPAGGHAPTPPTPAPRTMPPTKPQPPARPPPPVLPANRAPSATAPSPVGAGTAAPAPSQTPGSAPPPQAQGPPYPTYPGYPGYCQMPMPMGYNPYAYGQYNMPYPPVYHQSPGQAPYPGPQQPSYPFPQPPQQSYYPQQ
UniProt Q9UQN3: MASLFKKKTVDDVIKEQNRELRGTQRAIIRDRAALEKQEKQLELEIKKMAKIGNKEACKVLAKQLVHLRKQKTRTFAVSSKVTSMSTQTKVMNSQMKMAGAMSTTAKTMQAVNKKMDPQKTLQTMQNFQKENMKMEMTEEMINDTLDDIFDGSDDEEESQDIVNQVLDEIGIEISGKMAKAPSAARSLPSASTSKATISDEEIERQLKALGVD
UniProt P19525: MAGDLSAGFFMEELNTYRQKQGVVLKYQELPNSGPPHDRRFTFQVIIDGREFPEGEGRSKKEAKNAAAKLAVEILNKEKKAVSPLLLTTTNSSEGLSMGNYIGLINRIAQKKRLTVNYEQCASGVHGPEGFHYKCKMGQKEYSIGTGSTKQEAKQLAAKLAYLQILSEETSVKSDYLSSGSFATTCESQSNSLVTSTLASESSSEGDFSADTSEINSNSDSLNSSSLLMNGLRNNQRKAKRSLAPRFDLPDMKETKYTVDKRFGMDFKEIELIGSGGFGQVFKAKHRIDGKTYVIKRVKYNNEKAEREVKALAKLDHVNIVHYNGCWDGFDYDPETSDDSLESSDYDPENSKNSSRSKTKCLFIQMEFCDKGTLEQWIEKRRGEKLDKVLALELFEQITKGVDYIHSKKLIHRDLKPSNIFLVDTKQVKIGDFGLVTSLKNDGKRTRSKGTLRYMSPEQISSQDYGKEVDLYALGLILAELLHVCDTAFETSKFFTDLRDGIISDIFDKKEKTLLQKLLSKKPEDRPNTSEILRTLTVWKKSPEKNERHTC

B1: CHMP4B, endogenous (protein, UniProt Q9H444 1-224)
chain: MSVFGKLFGAGGGKAGKGGPTPQEAIQRLRDTEEMLSKKQEFLEKKIEQELTAAKKHGTKNKRAALQALKRKKRYEKQLAQIDGTLSTIEFQREALENANTNTEVLKNMGYAAKAMKAAHDNMDIDKVDELMQDIADQQELAEEISTAISKPVGFGEEFDEDELMAELEELEQEELDKNLLEISGPETVPLPNVPSIALPSKPAKKKEEEDDDMKELENWAGSM
B2: PACT, protein activator of PKR, endogenous (protein, UniProt O75569 1-313)
chain: MSQSRHRAEAPPLEREDSGTFSLGKMITAKPGKTPIQVLHEYGMKTKNIPVYECERSDVQIHVPTFTFRVTVGDITCTGEGTSKKLAKHRAAEAAINILKANASICFAVPDPLMPDPSKQPKNQLNPIGSLQELAIHHGWRLPEYTLSQEGGPAHKREYTTICRLESFMETGKGASKKQAKRNAAEKFLAKFSNISPENHISLTNVVGHSLGCTWHSLRNSPGEKINLLKRSLLSIPNTDYIQLLSEIAKEQGFNITYLDIDELSANGQYQCLAELSTSPITVCHGSGISCGNAQSDAAHNALQYLKIIAERK

The molecules below were run against APEX2-eIF2α (UniProt P05198) (assay: proximity labelling; APEX2-eIF2α in HEK293T cells, control or 1 mM LLOMe for 1 h; biotin-phenol, 1 min pulse of 1 mM H2O2; streptavidin beads, LC/MS/MS DIA; three independent experiments).

binding, binds:
ALG2 (Apoptosis-Linked Gene-2), endogenous (from UniProt O75340 1-191)
ALIX (ALG-2-Interacting Protein X), endogenous (from UniProt Q8WUM4 1-868)
CHMP2B, endogenous (from UniProt Q9UQN3 1-213)
PKR (Protein Kinase R), endogenous (from UniProt P19525 1-551)

Target: APEX2-eIF2α (UniProt P05198)
Test: as above
Remark: another data set of the same source

binding, binds:
B1
B2

No constants are given. Whether binding was seen depends on the method and setting. Binding seen in cells or lysates may run through a third protein. Here binding means that the protein was enriched with, or labelled near, the bait; the list need not be complete.
